Patent US20210269824A1, “VIRAL VECTOR FOR TREATING AUTOIMMUNE DISEASE AND DIABETES AND CONSTRUCTION METHOD AND APPLICATION THEREOF” (Guangzhou Huazhen Pharmaceutical Co., Ltd., priority 2017, published 2021)
For at least one compound, name, drawing or mass did not settle the structure.

Test system: peripheral blood CD4 T-cells of patients with type 1 diabetes
Experiment: Differentiation of peripheral blood CD4 T-cells (Th1, Th2, Th17, Treg) after in vitro treatment, flow cytometry
Type: cell-based, human
Details: 100 μM, 24 h in vitro, lymphocytes of type 1 diabetes patients
Procedure: (1) 5 ml peripheral blood was extracted from patients and normal humans separately, diluted twice with PBS of pH 7.2, and then mixed with lymphocyte separation solution Lymphoprep (Axis-Shield, Norway), centrifuged at 3500 rpm for 20 min, then the lymphocytes were taken out and cultured in RPMI1640 medium (purchased from Gibco) to obtain the cultured lymphocytes. The above cultured lymphocytes were treated in vitro with DHA (docosahexaenoic acid) at a final concentration of 100 μM, EPA (eicosapentaenoic acid) at a final concentration of 100 μM, and AA (arachidonic acid) at a final concentration of 100 μM for 24 h, respectively. After treating, changes in intracellular cytokines of CD4 T-cells in the above lymphocytes were detected. (The above DHA, EPA and AA are all purchased from Sigma).
(2) labeling of intracellular cytokines of CD4 T-cells: The lymphocytes (number up to 1×10^5) from patients and normal humans in the above steps were placed to different marked tubes. Labeled fluorescent monoclonal antibodies CD3 (0.1 μg) and CD8 (0.1 μg) were added into each tube. Then 1 ml paraformaldehyde having a concentration of 4% by weight was added into each tube, mixed well and incubated at room temperature (20° C.-30° C.) for 20 min. 1 ml intraprep permeabilization reagent, i.e. 0.5% saponin, was added, incubated at room temperature (20° C.-30° C.) for 30 min, then centrifuged for 5 min at 300 g, 4° C. to obtain a supernatant and a precipitate. The supernatant was removed, and 80 μl 0.5% saponin was added to re-suspend the precipitate to obtain suspensions. The obtained suspensions were labeled respectively with IFN-γ fluorescent monoclonal antibody (0.1 μg), IL-17 fluorescent monoclonal antibody (0.1 μg), IL-4 fluorescent monoclonal antibody (0.1 μg), and Foxp3 fluorescent monoclonal antibody (0.1 μg), and incubated in dark place at 4° C. for 1 h (for the suspension labeled with Foxp3 fluorescent monoclonal antibody, incubation and rupture took 8 h). The labeled cells were washed three times with 0.5% saponin, centrifuged for 5 min at 300 g, 4° C. to obtain a supernatant and a precipitate. The supernatant was removed, and the precipitate was fixed with paraformaldehyde having a mass concentration of 1%. After 24 h, percentages of Th1, Th2, Th17 and Treg cells were analyzed with a flow cytometer Accuri-C6. The antibodies and instruments used in the above steps were all purchased from BD Bioscience.
The CON in FIG. 2 represents a control group, i.e. the lymphocytes of peripheral blood from normal humans not treated with DHA, EPA or AA. The CON in FIG. 3 represents a control group, i.e. the lymphocytes of peripheral blood from patients not treated with DHA, EPA, or AA. In FIG. 2, figures A, B, C, D, and E show percentages of Th1, Th2, Th1/Th2, Th17 and Treg cells in peripheral blood CD4 T-cells of normal subjects, respectively, and figures F, G, H, I and J show percentages of Th1, Th2, Th1/Th2, Th17 and Treg cells in peripheral blood CD4 T-cells of patients, respectively. In FIG. 3, figures A, B, C, and D show percentages of transcription factors T-bet, GATA3, RORγT, and Foxp3 in peripheral blood CD4 T-cells of patients, respectively. As shown in FIGS. 2-3, in peripheral blood CD4 T-cells of patients with type 1 diabetes treated with DHA, EPA and AA respectively, the percentages of Th1 and Th17 cells decreased, and the percentages of Th2 and Treg cells increased, and the ratio of Th1/Th2 and the ratio of T17/Treg were rebalanced.

CC/C=C\C/C=C\C/C=C\C/C=C\C/C=C\C/C=C\CCC(=O)O [DHA, docosahexaenoic acid]
ratio of T17/Treg: rebalanced
ratio of Th1/Th2: rebalanced
percentage of Th1 cells (vs untreated): decreased
percentage of Th2 cells (vs untreated): increased
percentage of Th17 cells (vs untreated): decreased
percentage of Treg cells (vs untreated): increased
